Drawing on PubChem BioAssay AID445 (National Center for Advancing Translational Sciences (NCATS), 2006), this text covers AC50 for 61 compounds.

The test is described as follows: IkB Signaling. The conditions noted are these: ABC-DLBCL IkBa-CBG/CBR dual luciferase ratio (green luciferase fused to IkBa over red control in OCI-Ly3 lymphoma cells), 4 h. A digest of the protocol: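 Luminescence ratio of IκBα-fused green versus native red beetle luciferase in OCI-Ly3 cells, 4 h post-doxycycline with compound; red signal alone, scaled from basal (0%) to zero light (-100%), flagged nonspecific or cytotoxic effects.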
Setting [1] is: measured here: control luc red channel unless noted.

Some of the results follow. Further columns of the screen follow, without active or inactive calls. Compounds called inactive in the main read-out are mostly missing here. Potencies come from curve fits of mixed quality, noted in brackets.

`O=C(CCCCn1c(=O)c2ccccc2n(CC(=O)Nc2ccc(F)cc2)c1=O)NCc1ccco1`: the concentration at half-maximal activity (AC50) (usually the midpoint of the concentration-response curve, whichever way the signal moves) under setting [1] was 0.398 µM [falling, full curve].
Same read-out and setting: as for `Cc1c(-c2nc(N)nc(Nc3ccccc3F)n2)oc2ccccc12`, the figure is 0.00794 µM [falling, full curve].
As for `COc1ccc(OC)c(S(=O)(=O)N(C)CC(=O)N2CCN(c3cccc(Cl)c3)CC2)c1`, the AC50 under setting [1] is 25.1 µM [falling, partial curve].
For `CCOc1ccc(OCc2ccc(C(=O)OCc3ccccn3)o2)cc1`, the half-maximal activity concentration (AC50) under setting [1] was 25.1 µM [falling, partial curve].
On to `Cc1ccc(-c2[nH]c(-c3ccccc3)nc2SCC(=O)NCC2CCCO2)cc1` (configuration not stated), for which, under setting [1], the AC50 was 20 µM [falling, partial curve].
In the case of `CCNC(=O)NC(=O)COC(=O)c1ccccc1SCC(=O)NC(=O)NCC`, the half-maximal activity concentration (AC50) under setting [1] was 2.51 µM [falling, full curve].
Turning to `CCOC(=O)c1ccc2c(c1)N(Cc1ccccc1)C(=O)c1ccccc1S2`, the half-maximal activity concentration (AC50) under setting [1] is 39.8 µM [falling, single point].
The same measure, in the same setting: as for `CCCCc1ccc(NC(=O)CSc2nc3ccccc3nc2N2CCOCC2)cc1`, the figure is 5.01 µM [falling, partial curve]; as for `O=C(Nc1cc(Cl)cc(Cl)c1)c1ccc(F)c(S(=O)(=O)NC2CCCCC2)c1`, 20 µM [falling, partial curve]; as for `COc1cccc(-c2cc(C(=O)Nc3ccn(Cc4ccc(C)cc4)n3)no2)c1`, 7.94 µM [falling, partial curve].
Take `CC(C)c1ccc2oc(-c3ccc(NC(=O)c4cc5ccccc5o4)cc3)nc2c1`: the AC50 under setting [1] is 1 µM [falling, full curve].
Take `NC(=O)CSc1nnc(Cc2csc(Nc3ccccc3)n2)n1Cc1ccccc1`: the AC50 under setting [1] is 3.98 µM [falling, partial curve].
Consider `COc1ccc(C2C(=O)N(C3CCCCCC3)CC(=O)N2CCC2=CCCCC2)cc1` (configuration not stated), for which the AC50 under setting [1] was 15.8 µM [falling, partial curve].
Still for that read-out and setting: as for `CS(=O)(=O)N1CCCc2cc(C(=O)Nc3cccc(C(F)(F)F)c3)ccc21`, the figure is 31.6 µM [falling, partial curve].
Consider `CC(=O)c1ccc(N2CCN(c3ncnc4onc(C)c34)CC2)cc1`, for which, under setting [1], the AC50 was 2.51 µM [falling, partial curve].
For `CC1CCC(NC(=O)c2ccc(CS(=O)(=O)c3c(Cl)cccc3Cl)o2)CC1` (configuration not stated), the half-maximal activity concentration (AC50) under setting [1] was 31.6 µM [falling, single point].
With `CCOC(=O)c1ccc2c(c1)nc(C1CCN(S(=O)(=O)c3cccs3)CC1)n2CC`, under setting [1], the AC50 was 20 µM [falling, partial curve].
As for `COc1cc(-c2nc(-c3cccc(Cl)c3)c(-c3ccccc3)[nH]2)cc(OC)c1OC`, under setting [1], the half-maximal activity concentration (AC50) was 7.94 µM [falling, full curve].
Regarding `COc1ccc(OCC(=O)Nc2ccccc2C(=O)OCc2cc(=O)n3nc(C)sc3n2)cc1`, under setting [1], the AC50 is 1.58 µM [falling, partial curve].
For `COC(=O)c1ccc(CSc2nc3c(c(=O)[nH]2)CCC3)cc1`, under setting [1], the half-maximal activity concentration (AC50) is 15.8 µM [falling, single point].
On the same count and under the same terms, as for `Cn1c(=O)cc(SCC(=O)N2CCN(c3ccccc3F)CC2)c2cc(Cl)ccc21`, the figure is 20 µM [falling, partial curve]; as for `COc1cc(Cn2c(=O)sc3ccccc32)ccc1OCCC(C)C`, 12.6 µM [falling, partial curve, poor fit].
As for `CC(C)c1ccc2c(c1)-c1ccccc1S(=O)(=O)N2CC(=O)N1CCCCC1`, under setting [1], the AC50 is 39.8 µM [falling, single point].
Take `O=C(CSc1ncc(-c2ccccc2)[nH]1)Nc1cccc(C(F)(F)F)c1`: the AC50 under setting [1] is 31.6 µM [falling, partial curve].
For the compound `O=C1c2ccccc2C(=O)N1CC#CCN1CCN(C2CCCCC2)CC1`, the AC50 under setting [1] is 31.6 µM [falling, single point].
On to `O=C(c1ccco1)N1c2ccccc2Sc2ccccc21`, for which, under setting [1], the concentration at half-maximal activity (AC50) was 15.8 µM [falling, partial curve].
For the compound `Cc1ccccc1-c1nc(CS(=O)(=O)CC(=O)Nc2cc(Cl)cc(Cl)c2)c(C)o1`, the AC50 under setting [1] is 15.8 µM [falling, partial curve].
`COc1ccc2nc(NC(=O)CSC3=NCCS3)sc2c1`: the concentration at half-maximal activity (AC50) under setting [1] is 31.6 µM [falling, single point].
On the same count and under the same terms, under `COc1ccc(-c2cc(C(C)=O)c(C)n2CCC(=O)Nc2ccc(C(F)(F)F)cc2)cc1` stands 39.8 µM [rising, partial curve, poor fit]; under `COc1ccccc1NC(=O)Cn1c(=O)n(Cc2ccccc2)c(=O)c2c3c(sc21)CN(C(C)=O)CC3`, 2 µM [rising, partial curve].
As to `COc1ccccc1CNC(=O)Cn1c(=O)oc2cc(S(=O)(=O)NCc3ccccc3)ccc21`, the AC50 under setting [1] is 39.8 µM [falling, single point].
In the case of `CC1=C(C(=O)Nc2ccc(Cl)cc2)C(C(C)C)n2nc(SCc3ccc(Cl)cc3)nc2N1` (configuration not stated), under setting [1], the concentration at half-maximal activity (AC50) was 20 µM [falling, partial curve].
As to `O=C(Nc1cccc(-c2nnc(-c3ccccc3)o2)c1)c1ccc(Br)o1`, under setting [1], the AC50 is 10 µM [falling, partial curve].
On the same count and under the same terms, as for `COc1ccc(OC)c(CCNC(=O)C2=C(C)C(=O)OC23CCC(C)CC3)c1` (configuration not stated), the figure is 39.8 µM [falling, single point].
`O=C(Cn1nc(C(F)(F)F)c2c1CCC2)Nc1ccc(Cl)cc1`: under setting [1], the AC50 was 39.8 µM [falling, single point].
Regarding `CCC(=O)OCC(=O)[C@@]1(OC(=O)CC)[C@H](C)C[C@@H]2[C@H]3CCC4=CC(=O)C=C[C@]4(C)[C@]3(Cl)[C@@H](O)C[C@@]21C`, the AC50 under setting [1] was 2.51 nM [rising, full curve] [measured here: IkB-luc green channel].
As for `Fc1ccc(-c2cc(C(F)(F)F)nc(N3CCCCC3)n2)cc1`, under setting [1], the concentration at half-maximal activity (AC50) is 63.1 nM [rising, full curve, poor fit] [measured here: IkB-luc green channel].
For `COc1cc(CN(C(=O)c2cccc(C)c2)c2ccccn2)cc(OC)c1OC`, the half-maximal activity concentration (AC50) under setting [1] was 15.8 µM [falling, partial curve, poor fit].
Regarding `CC(C)CCn1c(N)c(S(=O)(=O)c2cccs2)c2nc3ccccc3nc21`, under setting [1], the AC50 was 20 µM [falling, partial curve].
Regarding `COC(=O)C1=C(C)Nc2nnnn2C1c1ccc(Cl)cc1Cl` (configuration not stated), the AC50 under setting [1] was 25.1 µM [falling, partial curve].
Take `CCN(C(=O)CN(C)S(=O)(=O)c1ccc2c(c1)n(C)c(=O)c(=O)n2C)c1cccc(C)c1`: under setting [1], the AC50 is 39.8 µM [falling, single point].
Turning to `CN(C)c1ccc(C(CNS(=O)(=O)c2cc(F)ccc2F)N2CCOCC2)cc1` (configuration not stated), the concentration at half-maximal activity (AC50) under setting [1] is 0.02 µM [rising, full curve, poor fit].
Regarding `Cc1csc(SCC(=O)c2cc(C)n(Cc3cccs3)c2C)n1`, the AC50 under setting [1] was 31.6 µM [falling, partial curve].
With `COc1ccc(NC(=O)c2cnc(SCC(=O)Nc3nc4ccc(C)cc4s3)n(C)c2=O)cc1`, the AC50 under setting [1] is 25.1 µM [falling, partial curve].
For the compound `Cc1cccc(C(=O)NCC(c2ccc3c(c2)OCO3)N2CCOCC2)c1` (configuration not stated), the AC50 under setting [1] is 0.0398 µM [rising, full curve].
Take `Cc1ccc(-c2noc(CSc3nnc(-c4ccc(Cl)cc4)n3C)n2)cc1`: under setting [1], the concentration at half-maximal activity (AC50) is 15.8 µM [falling, partial curve, poor fit].
Take `O=C(c1ccco1)c1cn(CCOc2ccc(Cl)cc2)c2ccccc12`: the concentration at half-maximal activity (AC50) under setting [1] was 7.94 µM [falling, partial curve].
As to `Cc1noc(NS(=O)(=O)c2ccc(N)cc2)c1C`, the concentration at half-maximal activity (AC50) reads like this: (measured here: IkB-luc green channel) 39.8 µM [rising, single point]; (measured here: control luc red channel) 39.8 µM [rising, single point].
For the compound `O=C(c1cccs1)N1CCCc2cc(NS(=O)(=O)c3ccc(Cl)cc3)ccc21`, the AC50 under setting [1] was 25.1 µM [falling, single point].
Same read-out and setting: under `COc1ccccc1-c1cc(C(F)(F)F)nc(S(=O)(=O)CCCC(=O)Nc2cc(Br)ccc2O)n1` stands 1.26 µM [falling, full curve]; under `COc1cccc(-n2c(=O)c3c4c(sc3n(Cc3ccc(F)cc3Cl)c2=O)CCCC4)c1`, 0.0631 µM [rising, full curve, poor fit].
Take `O=C(NCc1ccco1)C(c1cccs1)N(C(=O)Cc1cccs1)c1ccccc1` (configuration not stated): the AC50 under setting [1] was 15.8 µM [falling, partial curve].
With `CCc1ccc(NC(=O)CC(c2ccc(C)cc2)N2Cc3ccccc3C2=O)cc1` (configuration not stated), the concentration at half-maximal activity (AC50) under setting [1] was 15.8 µM [falling, single point].
With `COCCNC(=O)c1ccc2nc(CCc3ccccc3)oc2c1`, the half-maximal activity concentration (AC50) under setting [1] was 15.8 µM [rising, partial curve].
Same read-out and setting: as for `Cc1ccc(Cl)cc1N1CCN(C(=O)CCSCc2ccccc2F)CC1`, the figure is 31.6 µM [falling, partial curve].
On the same count and under the same terms, under `CCc1ccc(-c2cc(C)no2)cc1S(=O)(=O)N1CCN(c2cccc(Cl)c2)CC1` stands 15.8 µM [rising, partial curve]; under `COc1cc(C2Nc3ccccc3C(=O)N2c2ccccc2OC)ccc1O` (configuration not stated), 3.16 µM [falling, full curve].
Take `Cc1oc(-c2ccc(Cl)cc2)nc1CN1CCCC(C(=O)N2CCN(C(=O)c3ccco3)CC2)C1` (configuration not stated): the AC50 under setting [1] was 12.6 µM [falling, partial curve].
As to `COCCn1c(SCCCc2ccccc2)nc2c1c(=O)[nH]c(=O)n2C`, the half-maximal activity concentration (AC50) under setting [1] is 20 µM [falling, partial curve, poor fit].
As for `Cc1ccc(NC(=O)Nc2cc3c(cc2N2CCCCC2)n(C)c(=O)n3C)cc1Cl`, the concentration at half-maximal activity (AC50) under setting [1] was 10 µM [falling, partial curve].
For the compound `Cc1cc(Nc2nnnn2-c2ccccc2)n(-c2ccc(Cl)cc2)n1`, the AC50 under setting [1] is 15.8 µM [falling, partial curve].
